This is an account of results in article PMC10445734.

No constants are given. Whether binding was seen depends on the method and setting. In cells and extracts the contact can be indirect. Here binding means that the protein was enriched with, or labelled near, the bait; the list need not be complete.

The assay concerns the target N-terminally HA-tagged Fra (Frazzled), pan-neurally overexpressed (Drosophila). Put plainly: affinity purification with mass spectrometry; lysates of Drosophila embryos pan-neurally (elav-Gal4) overexpressing N-terminally HA-tagged Fra; anti-HA immunoprecipitation overnight at 4°C, protein A and G agarose beads, TBSV with 1% NP40; eluted with glycine pH 2.0; label-free LC-MS/MS; control embryos with elav-Gal4 alone.

B1: Netrin-B (ligand, UniProt Q24568 23-793)
chain: SSAAGISSNDPCYFEGKPRKCLPSFVNAAYGNPVQASSVCGAQQPERYCELLRDGNAGECRSCEQQRYGPAALTDLNNPSNVTCWRSGAVNVPHDPDSAPPDNVTLTLSLGKKYELTYISLSFCPRSPRPDSLAIFKSSDFGQTWQPFQFYSSQCQKFYGRPDRAKISKFNEQEARCINSQHDTGGAAQRFAFNTLEGRPSANDLDSSLVLQDWVTATDIRVVFHRLELPPQLLKVKNANAFSDEMGGSREEDEDDDADLELDGEQDEYDYNLQDNDSADAGYDEYEEPKKHLELDDDHLHLDYASDGESVVKRQGKHKGSAYEKHYQSKLAATTPPQQPPKVTPPGKVTPPSTAAPSAAASAVTLPISQHYAVSDFAVGGRCKCNGHASECVATVSSGSGTALSDQDDGQDEDTPSAPSLANHFGRSTQMSAKLTMTCACKHNTAGPECERCKPFYFDRPWGRATDNDANECKMCQCNGHARRCRFNLELYKLSGRVSGGVCYNCQHDTTGRYCHYCREGYYRDATKPPNHRKVCKRCDCHPVGSTGKTCNHLSGQCPCKEGVTGLTCNRCARGYQQTRSHVAPCIKVPTNANMIQAESAGGGGGGGTGDYKDGGGSQVEEMKKYCGKCKASPKKLNLNKFCMEDYAILAKVIGHDRASQDISTEKFSIERQNEIYKYEINIQTIFKRNPMSGTTSSLLGRGNMMLLVPRKSIECQCPKIKLNKSYLILGRDSEAAPGYLAIGPSSVVLEWKDEWSLRMKRFQRRARKCS
For B1, the binding entry is on record as “binds”.
